Results: article PMC9731852
Where two headings read alike, the source gives them in different places. These are yes or no findings as the source states them, for the method shown. Binding seen in cells or lysates may run through a third protein. Some entries that bind do so weakly or less than the wild type. Tags and fused reporters may be left off the sequences shown. Each block holds one molecule with its values, some of them ahead of it.

Amino acid sequences for entries named in this document (tags omitted). A change or cut given only in a name is not applied to a line headed by its entry. Residues count along the entry.
UniProt O15260: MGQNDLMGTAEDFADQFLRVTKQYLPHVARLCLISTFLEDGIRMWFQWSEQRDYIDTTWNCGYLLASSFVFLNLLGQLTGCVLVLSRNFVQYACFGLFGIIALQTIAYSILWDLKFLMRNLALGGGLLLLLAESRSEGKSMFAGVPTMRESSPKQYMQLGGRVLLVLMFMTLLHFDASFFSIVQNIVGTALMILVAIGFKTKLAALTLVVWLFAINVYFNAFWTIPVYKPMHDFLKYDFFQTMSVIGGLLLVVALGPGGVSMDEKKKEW
UniProt Q62226, residues 25-198: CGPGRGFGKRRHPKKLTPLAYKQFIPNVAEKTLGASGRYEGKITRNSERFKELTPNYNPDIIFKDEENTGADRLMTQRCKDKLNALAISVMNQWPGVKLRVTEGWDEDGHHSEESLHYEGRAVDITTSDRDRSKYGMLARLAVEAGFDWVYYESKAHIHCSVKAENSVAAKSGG

Columns and labels:
Experiment in all cases: pull-down; about 5 μg GST-SURF4^49–60 (WT or MT) on 10 μl GSH beads, incubated with 200 μl of 0.5 mg/ml lysate of transfected HEK293T cells in KOAc buffer (110 mM KOAc, 2 mM Mg(OAc)2, 20 mM Hepes, pH 7.2), 4 °C overnight; washed with 0.5 M KOAc buffer and KOAc buffer; immunoblot with anti-HA; only the target purified
[1] = molecular target: T1, GST-tagged human SURF4^49–60 (predicted first luminal loop of surfeit locus protein 4) (human) (UniProt O15260)
T1 sequence: SEQRDYIDTTWN

[2] = molecular target: T2, GST-tagged human SURF4^49–60 with E50, D53 and D56 substituted to alanine (triacidic motif-mutated) (human) (UniProt O15260)
T2 sequence: SAQRAYIATTWN

[3] = molecular target: T1, GST-tagged human SURF4^49–60 (predicted first luminal loop of surfeit locus protein 4) (human); remark: listed apart in the source
[4] = molecular target: T2, GST-tagged human SURF4^49–60 with E50, D53 and D56 substituted to alanine (triacidic motif-mutated) (human); remark: listed apart in the source

binding [1]: binds
binding [2]: binds
Molecule: C-terminal 3 × HA-tagged ShhN (aa:1–198), N-terminal fragment of sonic hedgehog (from UniProt Q62226 25-198) (domain or fragment)

binding [3]: binds
binding [4]: binds
B1: C-terminal 3 × HA-tagged SFRP1 (secreted frizzled-related protein 1) (protein, UniProt Q8N474 32-314)
chain: SEYDYVSFQSDIGPYQSGRFYTKPPQCVDIPADLRLCHNVGYKKMVLPNLLEHETMAEVKQQASSWVPLLNKNCHAGTQVFLCSLFAPVCLDRPIYPCRWLCEAVRDSCEPVMQFFGFYWPEMLKCDKFPEGDVCIAMTPPNATEASKPQGTTVCPPCDNELKSEAIIEHLCASEFALRMKIKEVKKENGDKKIVPKKKKPLKLGPIKKKDLKKLVLYLKNGADCPCHQLDNLSHHFLIMGRKVKSQYLLTAIHKWDKKNKEFKNFMKKMKNHECPTFQSVFK

binding [3]: binds
B2: polybasic motif–depleted SFRP1-HA (aa 223–245 deleted) (protein, UniProt Q8N474)
chain: SEYDYVSFQSDIGPYQSGRFYTKPPQCVDIPADLRLCHNVGYKKMVLPNLLEHETMAEVKQQASSWVPLLNKNCHAGTQVFLCSLFAPVCLDRPIYPCRWLCEAVRDSCEPVMQFFGFYWPEMLKCDKFPEGDVCIAMTPPNATEASKPQGTTVCPPCDNELKSEAIIEHLCASEFALRMKIKEVKKENGDLVLYLKNGADCPCHQLDNLSHHFLIMGRKVKSQYLLTAIHKWDKKNKEFKNFMKKMKNHECPTFQSVFK
